Data as given in the supplement of paper PMC12823440, “Inhibitors supercharge kinase turnover through native proteolytic circuits” (Nature, 2025).
The list shows a part of the results. Hit calls seldom repeat between salt and free forms of one compound.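 Kinases, fused to nanoluciferase, were expressed in K562 cells; luminescence was measured every 4 h from 2 to 18 h as percent of control (DMSO = 100%, positive control = 0%). A time point is decreased if signal falls significantly (2 sigma). Hits were called by the authors by a rule that is not shown; the count of time points alone does not decide it.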

Chains of the proteins cited; added tags and fusions are not shown. Lines headed by an entry give the natural chain unless they say otherwise; changes in a name come on top.
UniProt P00519, whole entry: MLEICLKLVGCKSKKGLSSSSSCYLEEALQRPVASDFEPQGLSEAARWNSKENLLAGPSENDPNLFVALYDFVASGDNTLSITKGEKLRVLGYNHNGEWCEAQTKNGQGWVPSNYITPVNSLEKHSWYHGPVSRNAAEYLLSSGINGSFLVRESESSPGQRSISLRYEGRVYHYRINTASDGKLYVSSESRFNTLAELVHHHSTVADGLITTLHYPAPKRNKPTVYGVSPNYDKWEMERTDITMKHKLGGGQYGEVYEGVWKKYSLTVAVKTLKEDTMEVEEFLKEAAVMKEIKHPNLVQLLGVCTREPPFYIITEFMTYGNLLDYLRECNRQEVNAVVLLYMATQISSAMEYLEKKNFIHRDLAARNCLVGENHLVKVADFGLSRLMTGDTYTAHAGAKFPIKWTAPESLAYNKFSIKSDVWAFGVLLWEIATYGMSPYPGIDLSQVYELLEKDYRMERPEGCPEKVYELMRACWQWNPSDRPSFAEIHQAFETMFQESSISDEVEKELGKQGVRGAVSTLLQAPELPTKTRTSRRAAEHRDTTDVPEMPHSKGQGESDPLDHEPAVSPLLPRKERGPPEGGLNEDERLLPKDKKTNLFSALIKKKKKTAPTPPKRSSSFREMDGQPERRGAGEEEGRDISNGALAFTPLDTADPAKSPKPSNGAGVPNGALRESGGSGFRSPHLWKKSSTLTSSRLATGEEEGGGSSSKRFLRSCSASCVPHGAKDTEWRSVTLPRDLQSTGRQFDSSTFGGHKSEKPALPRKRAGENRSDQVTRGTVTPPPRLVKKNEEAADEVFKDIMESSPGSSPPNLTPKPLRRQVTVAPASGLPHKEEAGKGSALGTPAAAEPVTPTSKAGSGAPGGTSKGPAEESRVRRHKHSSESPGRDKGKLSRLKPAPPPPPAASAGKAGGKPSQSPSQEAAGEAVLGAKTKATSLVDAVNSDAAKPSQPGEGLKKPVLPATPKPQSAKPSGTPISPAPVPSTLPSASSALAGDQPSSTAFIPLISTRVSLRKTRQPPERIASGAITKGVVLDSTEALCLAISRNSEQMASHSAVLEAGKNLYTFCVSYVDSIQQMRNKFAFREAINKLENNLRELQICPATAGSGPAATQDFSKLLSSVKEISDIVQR
UniProt P31749: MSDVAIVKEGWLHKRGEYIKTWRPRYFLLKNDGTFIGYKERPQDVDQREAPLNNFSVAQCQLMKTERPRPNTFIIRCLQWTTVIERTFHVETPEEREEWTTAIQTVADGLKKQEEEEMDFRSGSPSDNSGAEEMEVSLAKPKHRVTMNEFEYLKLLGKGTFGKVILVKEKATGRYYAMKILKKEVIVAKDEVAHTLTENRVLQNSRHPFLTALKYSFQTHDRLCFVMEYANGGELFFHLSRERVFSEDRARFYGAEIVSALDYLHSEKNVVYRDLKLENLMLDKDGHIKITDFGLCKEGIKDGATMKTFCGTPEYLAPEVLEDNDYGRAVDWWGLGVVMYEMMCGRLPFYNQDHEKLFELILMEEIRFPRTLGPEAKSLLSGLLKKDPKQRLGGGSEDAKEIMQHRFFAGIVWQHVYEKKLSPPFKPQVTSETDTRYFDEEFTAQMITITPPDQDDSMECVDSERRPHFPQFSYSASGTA
UniProt P10398: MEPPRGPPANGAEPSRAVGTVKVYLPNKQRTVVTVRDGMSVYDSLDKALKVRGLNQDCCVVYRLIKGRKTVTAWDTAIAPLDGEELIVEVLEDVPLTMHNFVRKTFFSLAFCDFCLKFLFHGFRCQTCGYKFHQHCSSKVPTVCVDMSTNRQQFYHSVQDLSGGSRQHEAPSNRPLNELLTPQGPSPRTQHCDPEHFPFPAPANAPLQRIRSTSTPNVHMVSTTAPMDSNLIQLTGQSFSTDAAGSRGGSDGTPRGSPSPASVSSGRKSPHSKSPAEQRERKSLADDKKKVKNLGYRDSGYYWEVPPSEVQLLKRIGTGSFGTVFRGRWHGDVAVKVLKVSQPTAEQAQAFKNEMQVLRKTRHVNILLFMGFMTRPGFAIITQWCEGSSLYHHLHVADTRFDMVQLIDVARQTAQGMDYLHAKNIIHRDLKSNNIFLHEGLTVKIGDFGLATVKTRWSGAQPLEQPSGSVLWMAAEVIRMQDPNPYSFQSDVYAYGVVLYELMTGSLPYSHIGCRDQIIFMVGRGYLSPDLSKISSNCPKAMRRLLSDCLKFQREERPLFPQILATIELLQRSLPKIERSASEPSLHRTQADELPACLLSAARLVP
UniProt O14965: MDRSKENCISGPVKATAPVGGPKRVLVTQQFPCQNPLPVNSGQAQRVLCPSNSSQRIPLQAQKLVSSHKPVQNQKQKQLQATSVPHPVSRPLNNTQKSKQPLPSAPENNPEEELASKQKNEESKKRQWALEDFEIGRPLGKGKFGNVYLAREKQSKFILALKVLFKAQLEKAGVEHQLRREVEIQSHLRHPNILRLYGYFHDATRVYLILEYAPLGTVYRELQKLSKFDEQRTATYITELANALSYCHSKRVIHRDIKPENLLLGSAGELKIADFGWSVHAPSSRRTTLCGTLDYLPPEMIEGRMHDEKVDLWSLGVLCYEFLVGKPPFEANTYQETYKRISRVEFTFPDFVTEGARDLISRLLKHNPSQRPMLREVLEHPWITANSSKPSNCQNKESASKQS
UniProt Q96GD4, whole entry: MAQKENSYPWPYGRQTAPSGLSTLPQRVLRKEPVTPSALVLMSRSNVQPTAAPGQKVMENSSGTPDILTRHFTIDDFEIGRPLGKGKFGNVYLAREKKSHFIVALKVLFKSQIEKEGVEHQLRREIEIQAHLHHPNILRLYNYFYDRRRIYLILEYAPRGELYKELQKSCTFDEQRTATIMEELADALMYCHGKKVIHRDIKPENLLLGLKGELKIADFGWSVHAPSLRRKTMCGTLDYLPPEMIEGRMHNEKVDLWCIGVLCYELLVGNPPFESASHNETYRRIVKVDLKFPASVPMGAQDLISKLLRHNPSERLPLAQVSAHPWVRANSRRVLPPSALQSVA
UniProt P15056, whole entry, looked up: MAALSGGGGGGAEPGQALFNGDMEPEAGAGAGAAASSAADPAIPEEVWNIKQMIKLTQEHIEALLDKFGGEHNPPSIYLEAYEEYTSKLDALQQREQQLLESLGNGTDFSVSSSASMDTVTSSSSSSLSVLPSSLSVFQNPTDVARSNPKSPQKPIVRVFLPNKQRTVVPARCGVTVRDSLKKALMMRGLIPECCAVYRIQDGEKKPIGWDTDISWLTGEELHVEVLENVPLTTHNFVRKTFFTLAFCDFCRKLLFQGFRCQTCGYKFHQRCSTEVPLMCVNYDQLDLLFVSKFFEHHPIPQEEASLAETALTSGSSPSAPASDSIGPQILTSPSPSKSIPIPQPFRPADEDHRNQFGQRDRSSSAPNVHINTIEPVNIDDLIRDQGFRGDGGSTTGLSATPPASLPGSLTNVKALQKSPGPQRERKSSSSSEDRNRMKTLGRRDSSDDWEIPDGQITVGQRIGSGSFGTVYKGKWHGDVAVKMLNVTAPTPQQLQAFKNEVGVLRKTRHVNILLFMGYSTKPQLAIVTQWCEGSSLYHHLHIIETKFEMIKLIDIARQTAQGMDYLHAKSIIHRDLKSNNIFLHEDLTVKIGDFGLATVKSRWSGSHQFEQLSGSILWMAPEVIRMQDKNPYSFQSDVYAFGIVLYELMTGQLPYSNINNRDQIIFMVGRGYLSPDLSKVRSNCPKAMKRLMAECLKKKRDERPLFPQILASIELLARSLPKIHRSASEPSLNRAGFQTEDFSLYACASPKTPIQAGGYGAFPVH
UniProt Q9UQM7, whole entry: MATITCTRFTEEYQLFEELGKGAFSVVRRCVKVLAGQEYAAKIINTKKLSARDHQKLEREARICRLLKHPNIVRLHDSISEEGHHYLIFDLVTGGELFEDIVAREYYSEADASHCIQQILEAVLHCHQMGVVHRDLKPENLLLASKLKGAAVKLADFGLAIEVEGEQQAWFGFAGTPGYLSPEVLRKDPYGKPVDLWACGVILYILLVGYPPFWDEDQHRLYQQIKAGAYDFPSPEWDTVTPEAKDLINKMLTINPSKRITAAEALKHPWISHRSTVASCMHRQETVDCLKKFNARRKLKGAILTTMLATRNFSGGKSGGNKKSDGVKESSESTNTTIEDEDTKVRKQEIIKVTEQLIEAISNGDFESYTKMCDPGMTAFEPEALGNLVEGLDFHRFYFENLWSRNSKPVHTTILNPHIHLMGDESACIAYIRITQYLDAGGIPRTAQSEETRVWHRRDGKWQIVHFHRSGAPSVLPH
UniProt Q13555: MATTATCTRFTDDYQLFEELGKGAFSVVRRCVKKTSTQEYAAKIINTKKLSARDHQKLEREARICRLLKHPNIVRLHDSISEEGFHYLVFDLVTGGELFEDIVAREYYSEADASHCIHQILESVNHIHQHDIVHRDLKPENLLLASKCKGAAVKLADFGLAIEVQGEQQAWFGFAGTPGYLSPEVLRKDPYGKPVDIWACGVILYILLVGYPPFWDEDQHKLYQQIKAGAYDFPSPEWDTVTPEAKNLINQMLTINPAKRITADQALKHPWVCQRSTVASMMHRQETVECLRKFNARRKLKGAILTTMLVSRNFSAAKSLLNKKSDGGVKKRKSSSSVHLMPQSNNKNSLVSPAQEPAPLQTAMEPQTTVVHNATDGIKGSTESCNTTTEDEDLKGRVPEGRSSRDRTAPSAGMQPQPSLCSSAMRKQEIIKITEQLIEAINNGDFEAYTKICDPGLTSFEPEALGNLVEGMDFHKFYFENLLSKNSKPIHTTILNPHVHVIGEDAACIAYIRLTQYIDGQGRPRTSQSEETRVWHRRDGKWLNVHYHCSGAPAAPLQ
UniProt Q15131: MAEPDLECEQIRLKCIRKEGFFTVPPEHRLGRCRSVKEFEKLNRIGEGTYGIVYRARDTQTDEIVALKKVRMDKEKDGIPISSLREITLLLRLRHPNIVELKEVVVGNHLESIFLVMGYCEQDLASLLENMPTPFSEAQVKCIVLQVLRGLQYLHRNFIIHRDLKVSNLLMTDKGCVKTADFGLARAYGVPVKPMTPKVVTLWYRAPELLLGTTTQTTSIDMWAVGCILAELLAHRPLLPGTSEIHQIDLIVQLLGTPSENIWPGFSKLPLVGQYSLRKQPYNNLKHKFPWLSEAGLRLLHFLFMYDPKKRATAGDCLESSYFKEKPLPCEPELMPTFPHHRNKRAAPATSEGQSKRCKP
UniProt Q00526: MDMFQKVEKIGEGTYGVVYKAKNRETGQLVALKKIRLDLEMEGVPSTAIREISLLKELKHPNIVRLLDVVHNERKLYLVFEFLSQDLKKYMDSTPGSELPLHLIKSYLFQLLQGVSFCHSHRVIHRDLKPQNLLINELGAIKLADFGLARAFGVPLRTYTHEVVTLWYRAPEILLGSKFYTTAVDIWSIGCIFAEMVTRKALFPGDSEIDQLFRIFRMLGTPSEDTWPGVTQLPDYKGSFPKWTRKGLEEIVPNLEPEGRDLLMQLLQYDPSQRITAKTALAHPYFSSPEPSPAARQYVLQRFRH
UniProt P11802: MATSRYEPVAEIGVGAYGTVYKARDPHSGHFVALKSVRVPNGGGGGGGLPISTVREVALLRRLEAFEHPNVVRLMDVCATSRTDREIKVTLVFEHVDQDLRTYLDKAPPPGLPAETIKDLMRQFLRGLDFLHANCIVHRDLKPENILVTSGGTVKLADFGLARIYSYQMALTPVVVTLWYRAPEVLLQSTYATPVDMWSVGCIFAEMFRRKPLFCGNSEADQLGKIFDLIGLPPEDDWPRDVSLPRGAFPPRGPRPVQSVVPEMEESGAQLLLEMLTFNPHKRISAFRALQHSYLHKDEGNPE
UniProt Q00535, whole entry, looked up: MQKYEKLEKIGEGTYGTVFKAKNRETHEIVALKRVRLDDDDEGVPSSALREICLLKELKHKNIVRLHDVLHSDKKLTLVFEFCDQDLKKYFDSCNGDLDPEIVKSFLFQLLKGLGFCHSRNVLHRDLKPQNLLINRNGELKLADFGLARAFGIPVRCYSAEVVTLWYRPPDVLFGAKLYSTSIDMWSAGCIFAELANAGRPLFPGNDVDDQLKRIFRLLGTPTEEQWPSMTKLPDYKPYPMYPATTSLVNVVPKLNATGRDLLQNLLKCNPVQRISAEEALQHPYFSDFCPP
UniProt Q00534, whole entry: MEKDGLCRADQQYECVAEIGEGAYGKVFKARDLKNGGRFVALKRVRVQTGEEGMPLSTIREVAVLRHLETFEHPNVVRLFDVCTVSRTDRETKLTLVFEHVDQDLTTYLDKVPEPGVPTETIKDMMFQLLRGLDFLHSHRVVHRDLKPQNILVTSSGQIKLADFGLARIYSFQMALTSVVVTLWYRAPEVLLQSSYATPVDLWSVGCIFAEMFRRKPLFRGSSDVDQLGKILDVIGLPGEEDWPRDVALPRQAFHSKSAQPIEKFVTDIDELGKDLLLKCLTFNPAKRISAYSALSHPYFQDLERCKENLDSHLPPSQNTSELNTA

What was measured:
Assay in all cases: kinase-Nluc reporter destabilization hit call (1 = scored as downregulated) (binary); higher = compound decreases kinase abundance
Settings in all cases: K562; 2-18 h
ABL1 = ABL1 (UniProt P00519)
AKT1 = AKT1 (UniProt P31749)
ALK = ALK (UniProt Q9UM73)
ARAF = ARAF (UniProt P10398)
AURKA = AURKA (UniProt O14965)
AURKB = AURKB (UniProt Q96GD4)
AURKC = AURKC (UniProt Q9UQB9)
BLK = BLK (UniProt P51451)
BMX = BMX (UniProt P51813)
BRAF = BRAF (UniProt P15056)
BRAF_V600E = tested on: BRAF_V600E
BTK = BTK (UniProt Q06187)
CAMK2A = CAMK2A (UniProt Q9UQM7)
CAMK2G = CAMK2G (UniProt Q13555)
CDK10 = CDK10 (UniProt Q15131)
CDK2 = CDK2 (UniProt P24941)
CDK3 = CDK3 (UniProt Q00526)
CDK4 = CDK4 (UniProt P11802)
CDK5 = CDK5 (UniProt Q00535)
CDK6 = CDK6 (UniProt Q00534)

Measured: kinase-Nluc reporter destabilization hit call

Cc1cccc(CC(=O)N2CCc3c2ccc(-c2cn(C)c4ncnc(N)c24)c3F)n1 (10 µM)
inactive: ABL1 = 0 | AKT1 = 0 | ALK 0 | ARAF 0 | AURKA 0 | AURKB 0 | AURKC 0 | BLK 0 | BMX 0 | BRAF 0 | BRAF_V600E 0 | BTK 0 | CAMK2A 0 | CAMK2G 0 | CDK10 = 0 | CDK2 = 0 | CDK3 = 0 | CDK4 = 0 | CDK5 = 0 | CDK6 = 0

CCCCNc1ncc(C(=O)NCc2ccc(-n3ccnc3)cc2)c(NC2CCC(O)CC2)n1 (stereo not given) (10 µM)
active: ABL1 = 1
inactive: AKT1 = 0 | ALK 0 | ARAF 0 | AURKA 0 | AURKB 0 | AURKC 0 | BLK 0 | BMX 0 | BRAF 0 | BRAF_V600E 0 | BTK 0 | CAMK2A 0 | CAMK2G 0 | CDK10 = 0 | CDK2 = 0 | CDK3 = 0 | CDK4 = 0 | CDK5 = 0 | CDK6 = 0

CC(=O)O[C@@H]1[C@@H](OC(C)=O)[C@@H](O)[C@H](Oc2c(-c3ccc(O)cc3)oc3cc(O)cc(O)c3c2=O)O[C@H]1C (10 µM)
inactive: ABL1 = 0 | AKT1 = 0 | ALK 0 | ARAF 0 | AURKA 0 | AURKB 0 | AURKC 0 | BLK 0 | BMX 0 | BRAF 0 | BRAF_V600E 0 | BTK 0 | CAMK2A 0 | CAMK2G 0 | CDK10 = 0 | CDK2 = 0 | CDK3 = 0 | CDK4 = 0 | CDK5 = 0 | CDK6 = 0

CN1C(=O)N[C@@H](Cc2c[nH]c3c(Cl)cccc23)C1=O [Necrostatin 2 (S enantiomer)] (10 µM)
inactive: ABL1 = 0 | AKT1 = 0 | ALK 0 | ARAF 0 | AURKA 0 | AURKB 0 | AURKC 0 | BLK 0 | BMX 0 | BRAF 0 | BRAF_V600E 0 | BTK 0 | CAMK2A 0 | CAMK2G 0 | CDK10 = 0 | CDK2 = 0 | CDK3 = 0 | CDK4 = 0 | CDK5 = 0 | CDK6 = 0

Cc1cc2c(F)c(Oc3ncnn4cc(OC[C@@H](C)OC(=O)[C@H](C)N)c(C)c34)ccc2[nH]1 [Brivanib (alaninate)] (10 µM)
inactive: ABL1 = 0 | AKT1 = 0 | ALK 0 | ARAF 0 | AURKA 0 | AURKB 0 | AURKC 0 | BLK 0 | BMX 0 | BRAF 0 | BRAF_V600E 0 | BTK 0 | CAMK2A 0 | CAMK2G 0 | CDK10 = 0 | CDK2 = 0 | CDK3 = 0 | CDK4 = 0 | CDK5 = 0 | CDK6 = 0

O=C(Nc1ccc(F)cc1F)C(NC(=S)Nc1cc(C(F)(F)F)cc(C(F)(F)F)c1)c1ccccc1 (racemic) (2.5 µM)
inactive: ABL1 = 0 | AKT1 = 0 | ALK 0 | ARAF 0 | AURKA 0 | AURKC 0 | BLK 0 | BMX 0 | BRAF 0 | BRAF_V600E 0 | BTK 0 | CAMK2A 0 | CAMK2G 0 | CDK10 = 0 | CDK2 = 0 | CDK3 = 0 | CDK4 = 0 | CDK5 = 0 | CDK6 = 0
active: AURKB 1

Nc1nc(Nc2ccc3c(c2)CC[C@@H](N2CCCC2)CC3)nn1-c1cc2c(nn1)-c1ccccc1CCC2 [Bemcentinib] (2.5 µM)
inactive: ABL1 = 0 | AKT1 = 0 | ALK 0 | ARAF 0 | AURKA 0 | AURKB 0 | AURKC 0 | BLK 0 | BMX 0 | BRAF 0 | BRAF_V600E 0 | BTK 0 | CAMK2A 0 | CAMK2G 0 | CDK10 = 0 | CDK2 = 0 | CDK3 = 0 | CDK4 = 0 | CDK5 = 0 | CDK6 = 0

O=S(=O)(c1ccc(O)cc1O)N1Cc2cc(O)cc(O)c2C1 (10 µM)
inactive: ABL1 = 0 | AKT1 = 0 | ALK 0 | ARAF 0 | AURKA 0 | AURKB 0 | AURKC 0 | BLK 0 | BMX 0 | BRAF 0 | BRAF_V600E 0 | BTK 0 | CAMK2A 0 | CAMK2G 0 | CDK10 = 0 | CDK2 = 0 | CDK3 = 0 | CDK4 = 0 | CDK5 = 0 | CDK6 = 0

CNc1cc2c(Nc3cccc(Br)c3)ncnc2cn1 (10 µM)
inactive: ABL1 = 0 | AKT1 = 0 | ALK 0 | ARAF 0 | AURKA 0 | AURKB 0 | AURKC 0 | BLK 0 | BMX 0 | BRAF 0 | BRAF_V600E 0 | BTK 0 | CAMK2A 0 | CAMK2G 0 | CDK10 = 0 | CDK2 = 0 | CDK3 = 0 | CDK4 = 0 | CDK5 = 0 | CDK6 = 0

CC(C)Cn1ncc2cc(Oc3ccc(F)cc3F)c(C(=O)NCCN(C)C)cc21 [p38α inhibitor 1] (10 µM)
inactive: ABL1 = 0 | AKT1 = 0 | ALK 0 | ARAF 0 | AURKA 0 | AURKB 0 | AURKC 0 | BLK 0 | BMX 0 | BRAF 0 | BRAF_V600E 0 | BTK 0 | CAMK2A 0 | CAMK2G 0 | CDK10 = 0 | CDK2 = 0 | CDK3 = 0 | CDK4 = 0 | CDK5 = 0 | CDK6 = 0

CCOC(=O)c1c(C)[nH]c(C=C2C(=O)Nc3ccccc32)c1C (10 µM)
inactive: ABL1 = 0 | AKT1 = 0 | ALK 0 | ARAF 0 | AURKA 0 | AURKB 0 | AURKC 0 | BLK 0 | BMX 0 | BRAF 0 | BRAF_V600E 0 | BTK 0 | CAMK2A 0 | CAMK2G 0 | CDK10 = 0 | CDK2 = 0 | CDK3 = 0 | CDK4 = 0 | CDK5 = 0 | CDK6 = 0

2 records picked at random from the list so far:
Nc1nc(Nc2ccc3c(c2)CC[C@@H](N2CCCC2)CC3)nn1-c1cc2c(nn1)-c1ccccc1CCC2 [Bemcentinib] (2.5 µM)
inactive: ABL1 = 0 | AKT1 = 0 | ALK 0 | ARAF 0 | AURKA 0 | AURKB 0 | AURKC 0 | BLK 0 | BMX 0 | BRAF 0 | BRAF_V600E 0 | BTK 0 | CAMK2A 0 | CAMK2G 0 | CDK10 = 0 | CDK2 = 0 | CDK3 = 0 | CDK4 = 0 | CDK5 = 0 | CDK6 = 0

CNc1cc2c(Nc3cccc(Br)c3)ncnc2cn1 (10 µM)
inactive: ABL1 = 0 | AKT1 = 0 | ALK 0 | ARAF 0 | AURKA 0 | AURKB 0 | AURKC 0 | BLK 0 | BMX 0 | BRAF 0 | BRAF_V600E 0 | BTK 0 | CAMK2A 0 | CAMK2G 0 | CDK10 = 0 | CDK2 = 0 | CDK3 = 0 | CDK4 = 0 | CDK5 = 0 | CDK6 = 0

Additional results.

CC(C)(Oc1ccc(Cl)cc1)C(=O)Nc1ccc(OCc2ccc(C#N)cc2)cc1 [AMPK activator 4] (10 µM)
inactive: ABL1 = 0 | AKT1 = 0 | ALK 0 | ARAF 0 | AURKA 0 | AURKB 0 | AURKC 0 | BLK 0 | BMX 0 | BRAF 0 | BRAF_V600E 0 | BTK 0 | CAMK2A 0 | CAMK2G 0 | CDK10 = 0 | CDK2 = 0 | CDK3 = 0 | CDK4 = 0 | CDK5 = 0 | CDK6 = 0

CC1=CC(=O)C(C(C)C)=C/C1=N/OC(=O)c1ccccc1C [Poloxin] (2.5 µM)
inactive: ABL1 = 0 | AKT1 = 0 | ALK 0 | ARAF 0 | AURKA 0 | AURKB 0 | AURKC 0 | BLK 0 | BMX 0 | BRAF 0 | BRAF_V600E 0 | BTK 0 | CAMK2A 0 | CAMK2G 0 | CDK10 = 0 | CDK2 = 0 | CDK3 = 0 | CDK4 = 0 | CDK5 = 0 | CDK6 = 0

Cc1ccc(C2CC(=O)NC(SCC(=O)Nc3nccs3)=C2C#N)cc1 (stereo not given) [Necrostatin-34] (10 µM)
inactive: ABL1 = 0 | AKT1 = 0 | ALK 0 | ARAF 0 | AURKA 0 | AURKB 0 | AURKC 0 | BLK 0 | BMX 0 | BRAF 0 | BRAF_V600E 0 | BTK 0 | CAMK2A 0 | CAMK2G 0 | CDK10 = 0 | CDK2 = 0 | CDK3 = 0 | CDK4 = 0 | CDK5 = 0 | CDK6 = 0

CCOC(=O)c1c(Nc2ccccc2Cl)oc(/C=C2\C=Nc3ncccc32)c1O (10 µM)
inactive: ABL1 = 0 | AKT1 = 0 | ALK 0 | ARAF 0 | AURKA 0 | AURKB 0 | AURKC 0 | BLK 0 | BMX 0 | BRAF 0 | BRAF_V600E 0 | BTK 0 | CAMK2A 0 | CAMK2G 0 | CDK10 = 0 | CDK2 = 0 | CDK3 = 0 | CDK4 = 0 | CDK5 = 0 | CDK6 = 0

Cc1ccc(NC(=O)N2CCN(c3nc(N)nc4sc(-c5cccnc5)nc34)CC2)cc1 [PI4KIII beta inhibitor 3] (10 µM)
inactive: ABL1 = 0 | AKT1 = 0 | ALK 0 | ARAF 0 | AURKA 0 | AURKB 0 | AURKC 0 | BLK 0 | BMX 0 | BRAF 0 | BRAF_V600E 0 | BTK 0 | CAMK2A 0 | CAMK2G 0 | CDK10 = 0 | CDK2 = 0 | CDK3 = 0 | CDK4 = 0 | CDK5 = 0 | CDK6 = 0

Oc1ccc(-c2cnc3ccc(NCc4ccco4)nn23)cc1 [IRAK inhibitor 2] (2.5 µM)
inactive: ABL1 = 0 | AKT1 = 0 | ALK 0 | ARAF 0 | AURKA 0 | AURKB 0 | AURKC 0 | BLK 0 | BMX 0 | BRAF 0 | BRAF_V600E 0 | BTK 0 | CAMK2A 0 | CAMK2G 0 | CDK10 = 0 | CDK2 = 0 | CDK3 = 0 | CDK4 = 0 | CDK5 = 0 | CDK6 = 0

Cc1ncc(-c2cc(F)c(O)c(F)c2)cc1-c1cc(F)c(O)c(F)c1 (10 µM)
inactive: ABL1 = 0 | AKT1 = 0 | ALK 0 | ARAF 0 | AURKA 0 | AURKB 0 | AURKC 0 | BLK 0 | BMX 0 | BRAF 0 | BRAF_V600E 0 | BTK 0 | CAMK2A 0 | CAMK2G 0 | CDK10 = 0 | CDK2 = 0 | CDK3 = 0 | CDK4 = 0 | CDK5 = 0 | CDK6 = 0
